These are yes or no findings as the source states them, for the method shown. In cells and extracts the contact can be indirect. Some results given as binding are weak or reduced against the parent protein; the word gives no strength.
Biological target: T1, B7-H3 (B7 homologue 3, CD276) (human (endogenous in N87)) (UniProt Q5ZPR3)
T1 sequence: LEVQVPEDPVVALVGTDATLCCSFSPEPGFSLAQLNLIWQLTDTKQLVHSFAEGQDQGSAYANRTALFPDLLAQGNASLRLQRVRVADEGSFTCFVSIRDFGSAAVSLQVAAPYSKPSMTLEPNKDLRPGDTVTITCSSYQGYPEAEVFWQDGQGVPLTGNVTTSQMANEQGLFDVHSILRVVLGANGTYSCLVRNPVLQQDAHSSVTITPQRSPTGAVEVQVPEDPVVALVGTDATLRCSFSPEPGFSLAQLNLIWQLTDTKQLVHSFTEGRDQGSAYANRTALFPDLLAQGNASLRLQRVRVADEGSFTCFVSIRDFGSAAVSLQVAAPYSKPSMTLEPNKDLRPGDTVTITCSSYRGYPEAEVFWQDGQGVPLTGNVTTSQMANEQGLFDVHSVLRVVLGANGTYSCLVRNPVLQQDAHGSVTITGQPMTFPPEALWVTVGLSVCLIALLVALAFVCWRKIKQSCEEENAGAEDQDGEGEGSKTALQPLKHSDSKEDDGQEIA
Assay: co-IP; lysate of LV-NC-infected N87 cells (100 mM KCl, 5 mM MgCl2, 10 mM HEPES pH 7.0, 0.5% NP-40, 1 mM DTT) on protein A/G beads with anti-B7-H3 antibody 4H7, 4°C for 6 h; immunoblot with B7-H3 or CXCR4 antibodies; controls: IgG or no antibody

Sequences of proteins named here, by UniProt entry; tags and fusion partners are left off.
UniProt P61073: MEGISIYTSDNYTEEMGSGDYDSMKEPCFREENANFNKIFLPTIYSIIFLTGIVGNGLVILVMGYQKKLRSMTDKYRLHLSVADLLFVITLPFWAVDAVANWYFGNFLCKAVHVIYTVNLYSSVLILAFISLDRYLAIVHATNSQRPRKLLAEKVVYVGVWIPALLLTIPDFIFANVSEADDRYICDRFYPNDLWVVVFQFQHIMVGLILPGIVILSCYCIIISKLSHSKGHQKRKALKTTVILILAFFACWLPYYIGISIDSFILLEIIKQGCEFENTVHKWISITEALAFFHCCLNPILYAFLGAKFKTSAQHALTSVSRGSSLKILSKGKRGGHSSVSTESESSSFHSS

binding: binds
Substance: CXCR4 (from UniProt P61073 1-352) (receptor)
